Some of the results follow. Hit calls seldom repeat between salt and free forms of one compound.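 Kinases, fused to nanoluciferase, were expressed in K562 cells; luminescence was measured every 4 h from 2 to 18 h as percent of control (DMSO = 100%, positive control = 0%). A time point is decreased if signal falls significantly (2 sigma). Hits were called by the authors by a rule that is not shown; the count of time points alone does not decide it.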
Columns and labels:
Test in all cases: kinase-Nluc reporter destabilization hit call (1 = scored as downregulated) (binary); higher = compound decreases kinase abundance
Conditions in all cases: K562; 2-18 h
[1] = target: CDK7 (UniProt P50613)
[2] = target: CDK9 (UniProt P50750)
[3] = target: CHEK2 (UniProt O96017)
[4] = target: CSF1R (UniProt P07333)
[5] = target: CSK (UniProt P41240)
[6] = target: CSNK1A1 (UniProt P48729)
[7] = target: CSNK1D (UniProt P48730)
[8] = target: DDR1 (UniProt Q08345)
[9] = target: DYRK1B (UniProt Q9Y463)
[10] = target: DYRK2 (UniProt Q92630)
[11] = target: EGFR (UniProt P00533)
[12] = target: EGFR_G719S (UniProt P00533)
[13] = target: EGFR_G719S_T790M (UniProt P00533)
[14] = target: EGFR_L718V (UniProt P00533)
[15] = target: EGFR_L858R (UniProt P00533)
[16] = target: EGFR_L861Q (UniProt P00533)
[17] = target: EGFR_T790M (UniProt P00533)
[18] = target: EPHA2 (UniProt P29317)
[19] = target: ERBB3 (UniProt P21860)
[20] = target: ERBB4_R711C (clone: ERBB4_mut) (UniProt Q15303)

Sequences of proteins named here, by UniProt entry; tags and fusion partners are left off. A change or cut given only in a name is not applied to a line headed by its entry.
UniProt P50613: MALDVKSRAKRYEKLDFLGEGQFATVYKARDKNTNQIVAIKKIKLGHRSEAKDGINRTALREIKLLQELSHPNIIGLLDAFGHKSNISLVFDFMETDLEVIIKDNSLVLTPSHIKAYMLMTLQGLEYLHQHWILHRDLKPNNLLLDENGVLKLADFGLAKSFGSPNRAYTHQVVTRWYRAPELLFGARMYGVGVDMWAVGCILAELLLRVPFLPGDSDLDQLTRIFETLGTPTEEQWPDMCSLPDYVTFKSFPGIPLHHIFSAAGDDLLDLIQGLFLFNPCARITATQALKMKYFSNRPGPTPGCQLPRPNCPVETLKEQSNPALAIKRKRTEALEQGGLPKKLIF
UniProt P50750, whole entry: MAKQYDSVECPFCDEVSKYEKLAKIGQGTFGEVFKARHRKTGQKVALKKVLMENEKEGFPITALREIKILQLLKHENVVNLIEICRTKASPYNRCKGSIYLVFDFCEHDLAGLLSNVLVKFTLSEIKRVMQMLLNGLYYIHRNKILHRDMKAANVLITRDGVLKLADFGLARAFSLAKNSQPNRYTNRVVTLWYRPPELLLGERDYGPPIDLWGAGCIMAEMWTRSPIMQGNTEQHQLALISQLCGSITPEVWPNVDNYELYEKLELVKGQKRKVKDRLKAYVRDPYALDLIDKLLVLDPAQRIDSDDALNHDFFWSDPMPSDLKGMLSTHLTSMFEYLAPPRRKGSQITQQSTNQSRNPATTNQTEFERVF
UniProt P07333, whole entry: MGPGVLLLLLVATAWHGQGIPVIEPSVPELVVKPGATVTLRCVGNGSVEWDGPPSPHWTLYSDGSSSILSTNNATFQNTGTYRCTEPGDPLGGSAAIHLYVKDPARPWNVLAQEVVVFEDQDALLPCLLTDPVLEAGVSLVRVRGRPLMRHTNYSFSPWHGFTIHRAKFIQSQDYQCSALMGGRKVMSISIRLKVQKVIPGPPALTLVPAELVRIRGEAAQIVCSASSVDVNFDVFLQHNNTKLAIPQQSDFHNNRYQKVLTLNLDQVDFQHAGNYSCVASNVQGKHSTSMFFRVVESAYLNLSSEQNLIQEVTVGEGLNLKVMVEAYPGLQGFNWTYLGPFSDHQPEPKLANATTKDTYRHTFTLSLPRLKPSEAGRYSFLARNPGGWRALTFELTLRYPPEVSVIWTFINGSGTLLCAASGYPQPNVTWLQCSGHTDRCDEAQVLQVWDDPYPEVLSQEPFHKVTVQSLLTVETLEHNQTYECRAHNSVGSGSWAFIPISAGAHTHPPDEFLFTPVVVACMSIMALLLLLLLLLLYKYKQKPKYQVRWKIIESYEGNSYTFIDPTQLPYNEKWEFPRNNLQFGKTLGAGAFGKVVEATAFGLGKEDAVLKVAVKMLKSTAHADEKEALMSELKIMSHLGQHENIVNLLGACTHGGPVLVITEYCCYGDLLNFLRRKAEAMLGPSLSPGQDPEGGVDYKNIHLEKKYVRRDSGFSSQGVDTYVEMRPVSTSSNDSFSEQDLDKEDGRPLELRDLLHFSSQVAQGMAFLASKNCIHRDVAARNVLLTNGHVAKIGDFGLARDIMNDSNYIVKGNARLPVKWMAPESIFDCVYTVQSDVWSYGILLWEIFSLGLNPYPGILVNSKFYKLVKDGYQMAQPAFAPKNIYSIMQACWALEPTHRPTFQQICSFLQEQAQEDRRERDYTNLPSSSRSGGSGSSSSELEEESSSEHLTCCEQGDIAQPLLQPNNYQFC
UniProt P41240: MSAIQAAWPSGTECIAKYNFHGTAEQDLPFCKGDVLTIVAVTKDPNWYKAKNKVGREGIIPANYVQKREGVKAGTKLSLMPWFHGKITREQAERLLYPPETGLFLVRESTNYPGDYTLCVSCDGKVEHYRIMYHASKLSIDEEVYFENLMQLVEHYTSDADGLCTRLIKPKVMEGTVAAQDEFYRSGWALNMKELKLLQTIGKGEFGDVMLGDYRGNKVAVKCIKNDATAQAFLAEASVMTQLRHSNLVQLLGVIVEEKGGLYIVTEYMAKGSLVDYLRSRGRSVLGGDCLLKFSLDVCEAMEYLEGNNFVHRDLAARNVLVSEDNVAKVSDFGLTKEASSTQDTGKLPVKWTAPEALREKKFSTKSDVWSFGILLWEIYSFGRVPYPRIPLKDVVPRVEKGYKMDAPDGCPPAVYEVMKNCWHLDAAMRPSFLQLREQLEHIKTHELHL
UniProt P48729: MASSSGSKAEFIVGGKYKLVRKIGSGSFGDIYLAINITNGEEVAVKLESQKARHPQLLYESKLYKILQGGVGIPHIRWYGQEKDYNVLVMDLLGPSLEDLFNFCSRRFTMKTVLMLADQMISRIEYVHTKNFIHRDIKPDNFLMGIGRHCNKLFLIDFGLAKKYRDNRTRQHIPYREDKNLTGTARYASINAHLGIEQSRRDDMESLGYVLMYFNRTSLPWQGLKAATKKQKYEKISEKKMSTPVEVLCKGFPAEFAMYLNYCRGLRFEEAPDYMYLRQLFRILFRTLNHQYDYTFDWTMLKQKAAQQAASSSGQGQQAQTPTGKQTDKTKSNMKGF
UniProt P48730: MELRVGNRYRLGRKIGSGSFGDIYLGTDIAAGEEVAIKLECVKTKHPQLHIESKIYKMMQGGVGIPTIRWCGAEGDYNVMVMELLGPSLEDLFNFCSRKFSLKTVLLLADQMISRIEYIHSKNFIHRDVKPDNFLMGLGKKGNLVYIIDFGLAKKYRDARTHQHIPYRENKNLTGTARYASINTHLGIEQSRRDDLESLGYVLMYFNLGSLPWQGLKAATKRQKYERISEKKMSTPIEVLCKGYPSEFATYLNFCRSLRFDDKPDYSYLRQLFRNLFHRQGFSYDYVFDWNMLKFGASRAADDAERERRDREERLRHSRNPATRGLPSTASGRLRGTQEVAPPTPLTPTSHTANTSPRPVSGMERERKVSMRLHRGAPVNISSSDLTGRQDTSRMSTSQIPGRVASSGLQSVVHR
UniProt Q08345: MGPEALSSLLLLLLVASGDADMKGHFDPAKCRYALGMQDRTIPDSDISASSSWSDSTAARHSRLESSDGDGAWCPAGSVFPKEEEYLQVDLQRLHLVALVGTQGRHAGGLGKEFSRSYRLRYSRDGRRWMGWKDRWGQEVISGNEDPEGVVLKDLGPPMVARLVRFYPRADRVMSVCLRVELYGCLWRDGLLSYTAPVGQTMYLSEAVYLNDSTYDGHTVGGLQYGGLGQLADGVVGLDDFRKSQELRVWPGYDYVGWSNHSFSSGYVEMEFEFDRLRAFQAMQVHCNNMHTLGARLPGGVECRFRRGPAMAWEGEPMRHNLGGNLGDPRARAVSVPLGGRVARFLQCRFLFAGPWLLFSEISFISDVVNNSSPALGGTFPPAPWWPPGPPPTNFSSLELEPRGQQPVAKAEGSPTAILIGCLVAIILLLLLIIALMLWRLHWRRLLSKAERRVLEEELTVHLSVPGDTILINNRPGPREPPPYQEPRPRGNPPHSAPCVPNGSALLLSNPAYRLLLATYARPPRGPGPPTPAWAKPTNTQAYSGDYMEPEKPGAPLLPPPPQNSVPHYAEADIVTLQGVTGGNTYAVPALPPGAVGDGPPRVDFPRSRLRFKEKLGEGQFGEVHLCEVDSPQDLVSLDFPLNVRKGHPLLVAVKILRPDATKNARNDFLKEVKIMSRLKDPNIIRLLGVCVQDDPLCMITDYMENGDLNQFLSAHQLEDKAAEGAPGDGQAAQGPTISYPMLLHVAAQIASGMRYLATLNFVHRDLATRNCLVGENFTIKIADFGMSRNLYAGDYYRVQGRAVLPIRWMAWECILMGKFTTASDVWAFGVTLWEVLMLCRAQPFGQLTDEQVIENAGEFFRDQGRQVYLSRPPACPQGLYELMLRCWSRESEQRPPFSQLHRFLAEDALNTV
UniProt Q9Y463, whole entry, looked up: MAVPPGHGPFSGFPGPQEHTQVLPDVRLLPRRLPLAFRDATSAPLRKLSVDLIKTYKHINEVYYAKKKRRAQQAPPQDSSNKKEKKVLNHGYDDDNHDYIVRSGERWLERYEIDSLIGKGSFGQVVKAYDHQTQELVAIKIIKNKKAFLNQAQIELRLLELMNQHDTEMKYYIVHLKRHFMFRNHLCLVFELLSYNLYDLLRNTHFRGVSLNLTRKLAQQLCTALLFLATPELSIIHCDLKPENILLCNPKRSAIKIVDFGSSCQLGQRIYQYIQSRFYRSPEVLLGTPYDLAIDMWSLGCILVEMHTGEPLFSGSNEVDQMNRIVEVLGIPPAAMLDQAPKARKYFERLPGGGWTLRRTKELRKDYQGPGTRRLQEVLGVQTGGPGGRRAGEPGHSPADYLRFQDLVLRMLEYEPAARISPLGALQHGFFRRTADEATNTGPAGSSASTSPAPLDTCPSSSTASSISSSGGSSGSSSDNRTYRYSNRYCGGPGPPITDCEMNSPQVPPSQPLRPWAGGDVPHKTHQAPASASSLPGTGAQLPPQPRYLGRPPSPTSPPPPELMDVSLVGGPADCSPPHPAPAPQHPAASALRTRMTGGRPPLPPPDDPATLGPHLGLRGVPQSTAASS
UniProt Q92630: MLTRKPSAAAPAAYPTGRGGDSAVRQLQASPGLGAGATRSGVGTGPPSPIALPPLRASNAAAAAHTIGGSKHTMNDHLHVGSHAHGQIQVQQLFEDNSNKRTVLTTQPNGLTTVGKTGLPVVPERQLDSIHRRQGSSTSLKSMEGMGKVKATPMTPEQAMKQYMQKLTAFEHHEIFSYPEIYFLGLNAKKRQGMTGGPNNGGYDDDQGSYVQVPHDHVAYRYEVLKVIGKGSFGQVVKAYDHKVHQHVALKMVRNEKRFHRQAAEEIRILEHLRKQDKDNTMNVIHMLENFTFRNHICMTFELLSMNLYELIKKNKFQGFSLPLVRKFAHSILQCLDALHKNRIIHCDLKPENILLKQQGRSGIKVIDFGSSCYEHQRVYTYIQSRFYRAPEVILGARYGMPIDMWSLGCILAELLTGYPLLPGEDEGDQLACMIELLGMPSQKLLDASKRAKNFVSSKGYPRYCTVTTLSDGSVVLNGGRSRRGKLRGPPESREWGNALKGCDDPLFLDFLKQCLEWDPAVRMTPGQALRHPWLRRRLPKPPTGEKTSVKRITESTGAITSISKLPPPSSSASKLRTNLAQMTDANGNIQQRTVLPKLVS
UniProt P21860, whole entry: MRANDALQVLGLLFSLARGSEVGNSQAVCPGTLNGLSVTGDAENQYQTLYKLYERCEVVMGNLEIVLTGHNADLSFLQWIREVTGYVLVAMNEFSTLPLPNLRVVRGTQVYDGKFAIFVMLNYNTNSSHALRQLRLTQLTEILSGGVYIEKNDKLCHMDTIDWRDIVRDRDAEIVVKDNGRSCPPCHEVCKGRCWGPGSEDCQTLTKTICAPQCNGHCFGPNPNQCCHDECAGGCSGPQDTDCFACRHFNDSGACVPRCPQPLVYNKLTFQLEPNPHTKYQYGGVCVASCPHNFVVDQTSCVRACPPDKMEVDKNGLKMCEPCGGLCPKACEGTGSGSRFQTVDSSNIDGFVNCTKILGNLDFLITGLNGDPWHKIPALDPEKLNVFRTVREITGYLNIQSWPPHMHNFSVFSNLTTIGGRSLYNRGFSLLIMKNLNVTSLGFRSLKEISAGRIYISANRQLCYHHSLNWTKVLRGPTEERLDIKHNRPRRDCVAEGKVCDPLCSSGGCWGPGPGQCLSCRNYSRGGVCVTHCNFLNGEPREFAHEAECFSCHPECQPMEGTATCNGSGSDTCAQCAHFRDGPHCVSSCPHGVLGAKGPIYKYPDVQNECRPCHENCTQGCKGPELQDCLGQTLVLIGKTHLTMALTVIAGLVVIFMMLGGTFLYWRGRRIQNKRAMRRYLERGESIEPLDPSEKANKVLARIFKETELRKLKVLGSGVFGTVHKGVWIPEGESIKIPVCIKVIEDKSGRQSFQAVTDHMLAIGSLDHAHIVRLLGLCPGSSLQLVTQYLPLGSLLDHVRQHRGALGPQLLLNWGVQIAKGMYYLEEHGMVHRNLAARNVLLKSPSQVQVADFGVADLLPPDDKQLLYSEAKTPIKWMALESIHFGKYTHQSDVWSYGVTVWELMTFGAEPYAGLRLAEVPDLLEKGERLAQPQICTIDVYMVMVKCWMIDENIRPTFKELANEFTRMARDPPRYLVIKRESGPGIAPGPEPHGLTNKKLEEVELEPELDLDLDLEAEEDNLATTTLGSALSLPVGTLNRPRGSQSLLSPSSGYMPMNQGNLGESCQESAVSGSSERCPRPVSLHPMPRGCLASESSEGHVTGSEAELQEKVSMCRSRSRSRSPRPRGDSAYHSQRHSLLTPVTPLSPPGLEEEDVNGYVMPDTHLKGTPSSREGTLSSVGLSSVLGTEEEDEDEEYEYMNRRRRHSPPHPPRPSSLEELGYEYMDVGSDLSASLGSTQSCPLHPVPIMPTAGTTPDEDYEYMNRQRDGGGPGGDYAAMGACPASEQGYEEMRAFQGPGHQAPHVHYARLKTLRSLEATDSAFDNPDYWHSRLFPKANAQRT

Measured: kinase-Nluc reporter destabilization hit call

CN1CCC(c2cc(-c3ccncc3)c(-c3ccc(F)cc3)[nH]2)CC1 (10 µM)
inactive: [1] 0 | [2] 0 | [3] 0 | [4] 0 | [5] 0 | [6] 0 | [7] 0 | [8] 0 | [9] 0 | [10] 0 | [11] 0 | [12] 0 | [13] 0 | [14] 0 | [15] 0 | [16] 0 | [17] 0 | [18] 0 | [19] 0 | [20] 0

COc1ccccc1-c1cc(Nc2cccc(CS(N)(=O)=O)c2)ncn1 (10 µM)
inactive: [1] 0 | [2] 0 | [3] 0 | [4] 0 | [5] 0 | [6] 0 | [7] 0 | [8] 0 | [9] 0 | [10] 0 | [11] 0 | [12] 0 | [13] 0 | [14] 0 | [15] 0 | [16] 0 | [17] 0 | [18] 0 | [19] 0 | [20] 0

CCC(C)N1c2ccccc2C(=O)N(C)c2cnc(Nc3ccc(C(=O)N4CCC(N5CCN(C)CC5)CC4)cc3OC)nc21 (stereo not given) (2.5 µM)
inactive: [1] 0 | [2] 0 | [3] 0 | [4] 0 | [5] 0 | [6] 0 | [7] 0 | [8] 0 | [9] 0 | [10] 0 | [11] 0 | [12] 0 | [13] 0 | [14] 0 | [15] 0 | [16] 0 | [17] 0 | [18] 0 | [19] 0 | [20] 0

COc1cc(Nc2ncc(F)c(Nc3ccc4c(n3)N(COP(=O)(O)O)C(=O)C(C)(C)O4)n2)cc(OC)c1OC [Fostamatinib (disodium hexahydrate)] (10 µM)
inactive: [1] 0 | [2] 0 | [3] 0 | [4] 0 | [5] 0 | [6] 0 | [7] 0 | [8] 0 | [9] 0 | [10] 0 | [11] 0 | [12] 0 | [13] 0 | [14] 0 | [15] 0 | [16] 0 | [17] 0 | [18] 0 | [19] 0 | [20] 0

CN(C)CCSSCCNC(=O)C1CCN(C(=O)CSc2ccc(Cl)cc2)CC1 (10 µM)
inactive: [1] 0 | [2] 0 | [3] 0 | [4] 0 | [5] 0 | [6] 0 | [7] 0 | [8] 0 | [9] 0 | [10] 0 | [11] 0 | [12] 0 | [13] 0 | [14] 0 | [15] 0 | [16] 0 | [17] 0 | [18] 0 | [19] 0 | [20] 0

O=C([O-])c1cc2ccccc2c(Cc2c(O)c(C(=O)[O-])cc3ccccc23)c1O.[Na+].[Na+] [Pamoic acid (disodium)] (10 µM)
inactive: [1] 0 | [2] 0 | [3] 0 | [4] 0 | [5] 0 | [6] 0 | [7] 0 | [8] 0 | [9] 0 | [10] 0 | [11] 0 | [12] 0 | [13] 0 | [14] 0 | [15] 0 | [16] 0 | [17] 0 | [18] 0 | [19] 0 | [20] 0

CCOC(=O)N1CCN(C(=O)[C@H](Cc2cccc(C(=N)N)c2)NS(=O)(=O)c2c(C(C)C)cc(C(C)C)cc2C(C)C)CC1 (10 µM)
inactive: [1] 0 | [2] 0 | [3] 0 | [4] 0 | [5] 0 | [6] 0 | [7] 0 | [8] 0 | [9] 0 | [10] 0 | [11] 0 | [12] 0 | [13] 0 | [14] 0 | [15] 0 | [16] 0 | [17] 0 | [18] 0 | [19] 0 | [20] 0

CN1C(=O)N[C@H](Cc2c[nH]c3c(Cl)cccc23)C1=O [Necrostatin 2] (10 µM)
inactive: [1] 0 | [2] 0 | [3] 0 | [4] 0 | [5] 0 | [6] 0 | [7] 0 | [8] 0 | [9] 0 | [10] 0 | [11] 0 | [12] 0 | [13] 0 | [14] 0 | [15] 0 | [16] 0 | [17] 0 | [18] 0 | [19] 0 | [20] 0

C=CC(=O)Nc1cc(Nc2ncc(Cl)c(-c3c[nH]c4ccccc34)n2)c(OC)cc1N(C)CCN(C)C [Mutant EGFR inhibitor] (2.5 µM)
inactive: [1] 0 | [2] 0 | [3] 0 | [4] 0 | [5] 0 | [6] 0 | [7] 0 | [8] 0 | [9] 0 | [10] 0 | [11] 0 | [12] 0 | [13] 0 | [14] 0 | [15] 0 | [16] 0 | [17] 0 | [18] 0 | [19] 0 | [20] 0

C=CC(=O)Nc1cc(C)ccc1Nc1nc(Nc2cc(OC)ncc2C)ncc1C(F)(F)F (10 µM)
inactive: [1] 0 | [2] 0 | [3] 0 | [4] 0 | [5] 0 | [6] 0 | [7] 0 | [8] 0 | [9] 0 | [10] 0 | [11] 0 | [12] 0 | [13] 0 | [14] 0 | [15] 0 | [16] 0 | [17] 0 | [18] 0 | [19] 0 | [20] 0

Cn1cnc(Cn2ccc3ccc(CNCc4[nH]c5ccccc5c4[C@H]4NC(=O)c5ccc(O)cc54)cc32)c1 (10 µM)
inactive: [1] 0 | [2] 0 | [3] 0 | [4] 0 | [5] 0 | [6] 0 | [7] 0 | [8] 0 | [9] 0 | [10] 0 | [11] 0 | [12] 0 | [13] 0 | [14] 0 | [15] 0 | [16] 0 | [17] 0 | [18] 0 | [19] 0 | [20] 0

O=Nc1c(-c2c(O)[nH]c3ccc(I)cc23)[nH]c2ccccc12 [5-Iodo-indirubin-3'-monoxime] (10 µM)
inactive: [1] 0 | [2] 0 | [3] 0 | [4] 0 | [5] 0 | [6] 0 | [7] 0 | [8] 0 | [9] 0 | [10] 0 | [11] 0 | [12] 0 | [13] 0 | [14] 0 | [15] 0 | [16] 0 | [17] 0 | [18] 0 | [19] 0 | [20] 0

Cn1cnc2c(F)c(Nc3ccc(Br)cc3Cl)c(C(=O)NOCCO)cc21 [Selumetinib] (10 µM)
inactive: [1] 0 | [2] 0 | [3] 0 | [4] 0 | [5] 0 | [6] 0 | [7] 0 | [8] 0 | [9] 0 | [10] 0 | [11] 0 | [12] 0 | [13] 0 | [14] 0 | [15] 0 | [16] 0 | [17] 0 | [18] 0 | [19] 0 | [20] 0

O=C(NOCC(O)CO)c1cc(Br)c(F)c(F)c1Nc1ccc(I)cc1F (stereo not given) (2.5 µM)
inactive: [1] 0 | [2] 0 | [3] 0 | [4] 0 | [5] 0 | [6] 0 | [7] 0 | [8] 0 | [9] 0 | [10] 0 | [11] 0 | [12] 0 | [13] 0 | [14] 0 | [15] 0 | [16] 0 | [17] 0 | [18] 0 | [19] 0 | [20] 0

CN(C)C(=O)Cn1cc(-c2ccc(-c3cncc4ccccc34)cc2)cn1 (10 µM)
inactive: [1] 0 | [2] 0 | [3] 0 | [4] 0 | [5] 0 | [6] 0 | [7] 0 | [8] 0 | [9] 0 | [10] 0 | [11] 0 | [12] 0 | [13] 0 | [14] 0 | [15] 0 | [16] 0 | [17] 0 | [18] 0 | [19] 0 | [20] 0

CN(CC(=O)N(Cc1ccc(C2CCCCC2)cc1)c1ccc(C(=O)NO)cc1)S(=O)(=O)c1c(F)c(F)c(F)c(F)c1F (2.5 µM)
inactive: [1] 0 | [2] 0 | [3] 0 | [4] 0 | [5] 0 | [6] 0 | [7] 0 | [8] 0 | [9] 0 | [10] 0 | [11] 0 | [12] 0 | [13] 0 | [14] 0 | [15] 0 | [16] 0 | [17] 0 | [18] 0 | [19] 0 | [20] 0

Two consecutive entries out of the list so far, for reference:
O=Nc1c(-c2c(O)[nH]c3ccc(I)cc23)[nH]c2ccccc12 [5-Iodo-indirubin-3'-monoxime] (10 µM)
inactive: [1] 0 | [2] 0 | [3] 0 | [4] 0 | [5] 0 | [6] 0 | [7] 0 | [8] 0 | [9] 0 | [10] 0 | [11] 0 | [12] 0 | [13] 0 | [14] 0 | [15] 0 | [16] 0 | [17] 0 | [18] 0 | [19] 0 | [20] 0

Cn1cnc2c(F)c(Nc3ccc(Br)cc3Cl)c(C(=O)NOCCO)cc21 [Selumetinib] (10 µM)
inactive: [1] 0 | [2] 0 | [3] 0 | [4] 0 | [5] 0 | [6] 0 | [7] 0 | [8] 0 | [9] 0 | [10] 0 | [11] 0 | [12] 0 | [13] 0 | [14] 0 | [15] 0 | [16] 0 | [17] 0 | [18] 0 | [19] 0 | [20] 0

(listing goes on)

Nc1nc2ccc(Cl)cc2c2nc(-c3ccco3)nn12 (10 µM)
inactive: [1] 0 | [2] 0 | [3] 0 | [4] 0 | [5] 0 | [6] 0 | [7] 0 | [8] 0 | [9] 0 | [10] 0 | [11] 0 | [12] 0 | [13] 0 | [14] 0 | [15] 0 | [16] 0 | [17] 0 | [18] 0 | [19] 0 | [20] 0

Cn1cc(-c2ccc3nnc(Sc4ccc5ncccc5c4)n3n2)cn1 (10 µM)
inactive: [1] 0 | [2] 0 | [3] 0 | [4] 0 | [5] 0 | [6] 0 | [7] 0 | [8] 0 | [9] 0 | [10] 0 | [11] 0 | [12] 0 | [13] 0 | [14] 0 | [15] 0 | [16] 0 | [17] 0 | [18] 0 | [19] 0 | [20] 0

Reference: the supplement of paper PMC12823440, “Inhibitors supercharge kinase turnover through native proteolytic circuits” (Nature, 2025)
